Laboratory results: paper PMC7468108 (Communications Biology, 2020)
The source gives many values for each of these; only a part stands here.

Sequences of proteins named here, by UniProt entry; tags and fusion partners are left off. Residues count along the entry.
UniProt P05067, 672-713 limits assumed: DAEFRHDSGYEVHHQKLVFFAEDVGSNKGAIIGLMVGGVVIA

Biological target: T1, Aβ42 (Homo sapiens, UniProt P05067)
T1 construct: purchased rPeptide (USA)
Assay: CD spectroscopy of Aβ42 aggregated with the tested molecules
Details: Aβ42 (10 µM) : molecule 1:5
Protocol: The blank was subtracted from the acquired CD spectra. For the CD study in the presence of the tryptophan-galacosylamine molecules, the spectra of hybrid molecules were also recorded separately and subtracted from the respective sample spectra. The normalized data were plotted using Origin pro 2015 software.

## NC(Cc1c[nH]c2ccccc12)C(=O)NC(Cc1c[nH]c2ccccc12)C(=O)O (stereo not drawn) [WW]
Wave length 190.0
  Normalized CD spectra: -64297.4
Wave length 190.5
  Normalized CD spectra: -48196.1
Wave length 191.0
  Normalized CD spectra: -33986.0
Wave length 191.5
  Normalized CD spectra: -21666.9
Wave length 192.0
  Normalized CD spectra: -11238.9
Wave length 192.5
  Normalized CD spectra: -2702.0
Wave length 193.0
  Normalized CD spectra: 3943.8
Wave length 193.5
  Normalized CD spectra: 8698.6
Wave length 194.0
  Normalized CD spectra: 11562.2
Wave length 194.5
  Normalized CD spectra: 12534.7
Wave length 195.0
  Normalized CD spectra: 11616.1
Wave length 195.5
  Normalized CD spectra: 30824.9
Wave length 196.0
  Normalized CD spectra: 13877.2
Wave length 196.5
  Normalized CD spectra: 1645.7
Wave length 197.0
  Normalized CD spectra: -25087.7
Wave length 197.5
  Normalized CD spectra: -25187.0
Wave length 198.0
  Normalized CD spectra: -50636.9
Wave length 198.5
  Normalized CD spectra: -63708.3
Wave length 199.0
  Normalized CD spectra: -77024.6
Wave length 199.5
  Normalized CD spectra: -89375.7
Wave length 200.0
  Normalized CD spectra: -105751.5
Wave length 200.5
  Normalized CD spectra: -123912.8
Wave length 201.0
  Normalized CD spectra: -139965.2
Wave length 201.5
  Normalized CD spectra: -155380.1
Wave length 202.0
  Normalized CD spectra: -174065.1
Wave length 202.5
  Normalized CD spectra: -190525.8
Wave length 203.0
  Normalized CD spectra: -209796.0
Wave length 203.5
  Normalized CD spectra: -227090.2
Wave length 204.0
  Normalized CD spectra: -243672.0
Wave length 204.5
  Normalized CD spectra: -261250.5
Wave length 205.0
  Normalized CD spectra: -283648.5
Wave length 205.5
  Normalized CD spectra: -299550.3
Wave length 206.0
  Normalized CD spectra: -313909.9
Wave length 206.5
  Normalized CD spectra: -330370.2
Wave length 207.0
  Normalized CD spectra: -352368.3
Wave length 207.5
  Normalized CD spectra: -366472.9
Wave length 208.0
  Normalized CD spectra: -384318.3
Wave length 208.5
  Normalized CD spectra: -400225.0
Wave length 209.0
  Normalized CD spectra: -414097.1
Wave length 209.5
  Normalized CD spectra: -431143.1
Wave length 210.0
  Normalized CD spectra: -444840.8
Wave length 210.5
  Normalized CD spectra: -452976.0
Wave length 211.0
  Normalized CD spectra: -462299.6
Wave length 211.5
  Normalized CD spectra: -474209.7
Wave length 212.0
  Normalized CD spectra: -483100.4
Wave length 212.5
  Normalized CD spectra: -491764.7
Wave length 213.0
  Normalized CD spectra: -496873.3
Wave length 213.5
  Normalized CD spectra: -500059.5
Wave length 214.0
  Normalized CD spectra: -507486.5
Wave length 214.5
  Normalized CD spectra: -513352.0
Wave length 215.0
  Normalized CD spectra: -517976.0
Wave length 215.5
  Normalized CD spectra: -519706.0
Wave length 216.0
  Normalized CD spectra: -515831.1
Wave length 216.5
  Normalized CD spectra: -520834.7
Wave length 217.0
  Normalized CD spectra: -526466.2
Wave length 217.5
  Normalized CD spectra: -527163.0
Wave length 218.0
  Normalized CD spectra: -530743.5
Wave length 218.5
  Normalized CD spectra: -530612.1
Wave length 219.0
  Normalized CD spectra: -531399.2
Wave length 219.5
  Normalized CD spectra: -531887.6
Wave length 220.0
  Normalized CD spectra: -525174.6
Wave length 220.5
  Normalized CD spectra: -519778.8
Wave length 221.0
  Normalized CD spectra: -516073.5
Wave length 221.5
  Normalized CD spectra: -510544.1
Wave length 222.0
  Normalized CD spectra: -503880.7
Wave length 222.5
  Normalized CD spectra: -492277.0
Wave length 223.0
  Normalized CD spectra: -478520.0
Wave length 223.5
  Normalized CD spectra: -469699.4
Wave length 224.0
  Normalized CD spectra: -456039.8
Wave length 224.5
  Normalized CD spectra: -442374.1
Wave length 225.0
  Normalized CD spectra: -431956.3
Wave length 225.5
  Normalized CD spectra: -420538.9
Wave length 226.0
  Normalized CD spectra: -406416.4
Wave length 226.5
  Normalized CD spectra: -402486.4
Wave length 227.0
  Normalized CD spectra: -390234.2
Wave length 227.5
  Normalized CD spectra: -375736.8
Wave length 228.0
  Normalized CD spectra: -364981.6
Wave length 228.5
  Normalized CD spectra: -349749.5
Wave length 229.0
  Normalized CD spectra: -335216.5
Wave length 229.5
  Normalized CD spectra: -321156.5
Wave length 230.0
  Normalized CD spectra: -303469.3
Wave length 230.5
  Normalized CD spectra: -292156.5
Wave length 231.0
  Normalized CD spectra: -278212.5
Wave length 231.5
  Normalized CD spectra: -265555.2
Wave length 232.0
  Normalized CD spectra: -251517.9
Wave length 232.5
  Normalized CD spectra: -234503.9
Wave length 233.0
  Normalized CD spectra: -219459.4
Wave length 233.5
  Normalized CD spectra: -207021.0
Wave length 234.0
  Normalized CD spectra: -194184.2
Wave length 234.5
  Normalized CD spectra: -182951.0
Wave length 235.0
  Normalized CD spectra: -174445.0
Wave length 235.5
  Normalized CD spectra: -168793.7
Wave length 236.0
  Normalized CD spectra: -163003.2
Wave length 236.5
  Normalized CD spectra: -157071.1
Wave length 237.0
  Normalized CD spectra: -149970.6
Wave length 237.5
  Normalized CD spectra: -145745.9
Wave length 238.0
  Normalized CD spectra: -139959.7
Wave length 238.5
  Normalized CD spectra: -132832.8
Wave length 239.0
  Normalized CD spectra: -124788.8
Wave length 239.5
  Normalized CD spectra: -116693.6
Wave length 240.0
  Normalized CD spectra: -110389.7
Wave length 240.5
  Normalized CD spectra: -108562.8
Wave length 241.0
  Normalized CD spectra: -100105.9
Wave length 241.5
  Normalized CD spectra: -96239.6
Wave length 242.0
  Normalized CD spectra: -86950.7
Wave length 242.5
  Normalized CD spectra: -82350.1
Wave length 243.0
  Normalized CD spectra: -78251.8
Wave length 243.5
  Normalized CD spectra: -74078.3
Wave length 244.0
  Normalized CD spectra: -70011.9
Wave length 244.5
  Normalized CD spectra: -66567.4
Wave length 245.0
  Normalized CD spectra: -65681.1
Wave length 245.5
  Normalized CD spectra: -66045.3
Wave length 246.0
  Normalized CD spectra: -64181.4
Wave length 246.5
  Normalized CD spectra: -63897.4
Wave length 247.0
  Normalized CD spectra: -66271.9
Wave length 247.5
  Normalized CD spectra: -66923.6
Wave length 248.0
  Normalized CD spectra: -65794.6
Wave length 248.5
  Normalized CD spectra: -65799.5
Wave length 249.0
  Normalized CD spectra: -65544.8
Wave length 249.5
  Normalized CD spectra: -65561.8
Wave length 250.0
  Normalized CD spectra: -66156.0
Wave length 250.5
  Normalized CD spectra: -66081.9
Wave length 251.0
  Normalized CD spectra: -62984.6
Wave length 251.5
  Normalized CD spectra: -62588.4
Wave length 252.0
  Normalized CD spectra: -59304.7
Wave length 252.5
  Normalized CD spectra: -60158.9
Wave length 253.0
  Normalized CD spectra: -60540.3
Wave length 253.5
  Normalized CD spectra: -59144.3
Wave length 254.0
  Normalized CD spectra: -57495.8
Wave length 254.5
  Normalized CD spectra: -57794.3
Wave length 255.0
  Normalized CD spectra: -56709.1
Wave length 255.5
  Normalized CD spectra: -55609.7
Wave length 256.0
  Normalized CD spectra: -54583.8
Wave length 256.5
  Normalized CD spectra: -53631.4
Wave length 257.0
  Normalized CD spectra: -52752.4
Wave length 257.5
  Normalized CD spectra: -51946.8
Wave length 258.0
  Normalized CD spectra: -51214.7
Wave length 258.5
  Normalized CD spectra: -50556.0
Wave length 259.0
  Normalized CD spectra: -49970.7
Wave length 259.5
  Normalized CD spectra: -49458.9
Wave length 260.0
  Normalized CD spectra: -49020.6
